Reference: PubChem BioAssay AID624297 (National Center for Advancing Translational Sciences (NCATS), 2012)
About 6,200 (1.8%) of roughly 340,000 compounds were called active. This list was built around the results that the source calls inconclusive (neither active nor inactive); the mix of calls is not that of the screen. Calls come from the whole dose curve; as a rule, active = well fitted activation curve with a large enough effect; inconclusive = small, poorly fitted or top-dose-only effect; inactive = no such curve, though single readings can be large or run the other way. Potencies of inconclusive entries are doubtful fits and often do not repeat.

Assay: A quantitative high throughput screen for small molecules that induce DNA re-replication in SW480 colon adenocarcinoma cells. For re-replication activation: % of control where 0% means no effect. Note: nearly all actives have a fitted effect of over 55% in size.
Details: Hoechst DNA content imaging, 48 h; re-replication activation: at 46.1 µM (top of the series) unless noted
Summary of the method: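 First, 250 cells per well were seeded. Next, compound or vehicle (23 nL) was pinned in, plates sat 48 hr at 37 C. Finally Hoechst was added for 40 min before fluorescence scanning.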
Potency is the fitted concentration of half-maximal effect.

Q: With CSc1ccc(CNc2nc3ccccc3n3cnnc23)cc1 as the molecule, how does the Potency read?
A: inconclusive: 29.1 µM [activator, single point]

Q: Which “re-replication activation” value does the source give for CCn1cc(C(=O)O)c(=O)c2cc(F)c(N3CCN(S(=O)(=O)c4ccc(NC(=O)OC)cc4)CC3)cc21 here?
A: inactive: -50.1%

Q: With COc1ccc(S(=O)(=O)N2CCOCC2)cc1NC(=O)/C=C/c1ccc(F)cc1 as the molecule, how does the “re-replication activation” value read?
A: inactive: 0.217%

Q: Which Potency does the source give for CN(C)CCNC=C(C(=O)Nc1ccc(Cl)cc1Cl)C(=O)Nc1ccc(Cl)cc1Cl here?
A: inconclusive: 29.1 µM [activator, single point]

Q: For Cc1ccc(S(=O)(=O)CCc2nc3ccccc3n2CCC#N)cc1, which Potency is on record?
A: inconclusive: 29.1 µM [activator, partial curve, poor fit]

Q: For Cc1ccc(S(=O)(=O)N2CCN(C(=O)COC(=O)COc3ccc(Br)cc3)CC2)c(C)c1, which Potency is on record?
A: inconclusive: 23.1 µM [activator, single point]

Q: With COc1ccc(S(=O)(=O)N2CCC(C(=O)Oc3c(OC)cccc3OC)CC2)cc1OC as the molecule, how does the Potency read?
A: inconclusive: 2.06 µM [activator, full curve, poor fit]

Q: For CCOC(=O)c1c(C)[nH]c(C(=O)C(C)Cl)c1C (stereo unspecified), which “re-replication activation” value is on record?
A: inactive: 1.95%

Q: With Cc1nc2ncnn2c(C)c1CCC(=O)N1CCN(Cc2ccccc2)CC1 as the molecule, how does the “re-replication activation” value read?
A: inactive: -5.8%

Q: Which Potency does the source give for CC[C@]12c3[nH]c4ccc(Cl)cc4c3CCN1C(=O)[C@@H](CC(=O)NCC13CC4CC(CC(C4)C1)C3)C[C@@H]2C(=O)N1CCN(C(=O)C2CC2)CC1 here?
A: inconclusive: 20.6 µM [activator, partial curve]

Q: With CCOc1ccc(-c2cc(N3C(=O)Nc4ccccc4N3O)n[nH]2)cc1 as the molecule, how does the Potency read?
A: inconclusive: 25.9 µM [activator, single point]

Q: Which “re-replication activation” value does the source give for CC/C(C)=N\N=C\c1c(O)n(CC)c2cc(C3=NNC(=O)CC3)ccc12 here?
A: inactive: -1.32%

Q: For O=C(c1ccc(-n2c(SCc3cc(F)ccc3F)nc3ccccc3c2=O)cc1)N1CCOCC1, which Potency is on record?
A: inconclusive: 0.146 µM [activator, full curve, poor fit]

Q: Which Potency does the source give for O=c1c([N+](=O)[O-])c(N2CCOCC2)c2ccccc2n1-c1ccccc1 here?
A: inconclusive: 5.17 µM [activator, partial curve, poor fit]

Q: Which Potency does the source give for COc1ccc(Nc2nc(NCc3ccco3)nc(N/N=C/c3ccccc3F)n2)cc1 here?
A: inconclusive: 4.11 µM [activator, full curve, poor fit]

Q: For CCc1ccc([C@H]2C(C(=O)O)=C[C@@H](CC)N2S(=O)(=O)c2ccc(C)cc2)cc1, which Potency is on record?
A: inconclusive: 0.0731 µM [activator, full curve, poor fit]

Q: For COc1ccc(-c2nn(-c3ccccc3)cc2C=O)cc1[N+](=O)[O-], which Potency is on record?
A: inconclusive: 18.4 µM [activator, single point]

Q: Which Potency does the source give for c1cncc(-c2nnc(-c3cccnc3)nn2)c1 here?
A: inconclusive: 20.6 µM [activator, single point]

Q: Which Potency does the source give for CCCCN(CC)CCNC(=O)c1cc2c(=O)n(C)c3ccccc3c2s1 here?
A: inconclusive: 18.4 µM [activator, single point]

Q: For CS(=O)(=O)c1ccccc1C(=O)Nc1ccc(S(=O)(=O)N2CCCC2)cc1, which “re-replication activation” value is on record?
A: inactive: 2.12%

Q: For CC(=O)n1cc(N(C(=O)CCl)c2ccc([N+](=O)[O-])cc2)c2ccccc21, which Potency is on record?
A: active: 16.4 µM

Q: Which “re-replication activation” value does the source give for COc1cccc(NC(=S)N2c3ccccc3CC2C)c1 (stereo unspecified) here?
A: inactive: -5.04%

Q: For COc1ccc(CN2CCNC(=O)C2CC(=O)NCc2ccc(C)s2)c(OC)c1 (stereo unspecified), which “re-replication activation” value is on record?
A: inactive: 3.54%

Q: For CCOc1ccc(OCCC(=O)NNC(=O)c2cc(C)oc2C)cc1, which “re-replication activation” value is on record?
A: inactive: -3.94%

Q: For Cc1cc(C(=O)N/N=C/c2cccc(OC(=O)c3cccc(Br)c3)c2)n[nH]1, which “re-replication activation” value is on record?
A: inactive: 2.56%

Q: Which Potency does the source give for CCOc1ccc(-c2ccc(/C=C3/C(=N)N4C=CSC4=NC3=O)o2)c([N+](=O)[O-])c1 here?
A: inconclusive: 11.6 µM [activator, partial curve, poor fit]

Q: With O=S(=O)(Nc1ccccc1)c1cccc2nsnc12 as the molecule, how does the “re-replication activation” value read?
A: inactive: -1.63%

Q: Which Potency does the source give for N#Cc1c(N2CCCCC2)nc(N)c2c(N)nc(SCC(=O)O)cc12 here?
A: inconclusive: 29.1 µM [activator, single point]

Q: With COC(=O)c1c(NC(=O)CCS(=O)(=O)c2ccccc2)sc2c1CCN(C)C2 as the molecule, how does the Potency read?
A: inconclusive: 29.1 µM [activator, single point]

Q: Which Potency does the source give for COc1ccc(N(CC(=O)NCc2ccccc2)S(C)(=O)=O)cc1 here?
A: inconclusive: 18.4 µM [activator, single point]

Q: For COc1ccc(C(CNC(=O)CCNS(=O)(=O)c2ccc(C)cc2)N2CCOCC2)cc1 (stereo unspecified), which Potency is on record?
A: active: 5.17 µM

Q: For Cc1nc2ccccc2c(=O)n1/N=C/c1ccccc1O, which Potency is on record?
A: inconclusive: 29.1 µM [activator, single point]

Q: Which “re-replication activation” value does the source give for O=C1C2CC=C(Cl)CC2C(=O)N1c1ncn[nH]1 (stereo unspecified) here?
A: inactive: -3.9%

Q: For Cc1nc(NC2CCCCC2)c2nnn(Cc3ccccc3Cl)c2n1, which Potency is on record?
A: inconclusive: 6.51 µM [activator, single point]

Q: With N/C(CCS(=O)(=O)c1ccc(Cl)cc1)=N\OC(=O)c1ccccc1C(F)(F)F as the molecule, how does the Potency read?
A: inconclusive: 20.6 µM [activator, single point]

Q: With CCN(Cc1ccncc1)C(=O)c1ccc(C)o1 as the molecule, how does the Potency read?
A: inconclusive: 16.4 µM [activator, single point]

Q: Which Potency does the source give for COC(=O)C1CCN(C(=O)/C=C/c2ccccc2)CC1 here?
A: inconclusive: 1.84 µM [activator, full curve, poor fit]

Q: For Cc1ccccc1C(=O)c1cccn1CC(=O)NCCN1CCN(c2cccc(C)c2C)CC1, which Potency is on record?
A: inconclusive: 20.6 µM [activator, single point]

Q: For COc1ccc(Cn2c(N)c(S(=O)(=O)c3cccs3)c3nc4ccccc4nc32)cc1, which Potency is on record?
A: inconclusive: 23.1 µM [activator, partial curve, poor fit]

Q: For Cc1cccc(C)c1NC(=O)CNC(=O)c1ccc2ccccc2n1, which “re-replication activation” value is on record?
A: inactive: 34.1%

Q: With C=CCOC(=O)C1=C(C)NC(C)=C(C(=O)OCC=C)C1/C=C/c1ccccc1 as the molecule, how does the Potency read?
A: inconclusive: 29.1 µM [activator, single point]

Q: Which Potency does the source give for CCC(C(=O)NC1CCCC1)N(C(=O)Cn1nnc(-c2ccc(C)o2)n1)c1ccc(OC)cc1 (stereo unspecified) here?
A: inconclusive: 20.6 µM [activator, single point]

Q: With COc1cc(C)c(CN2CCC(Cc3ccccc3)CC2)cc1C as the molecule, how does the Potency read?
A: inconclusive: 23.1 µM [activator, single point]

Q: Which Potency does the source give for CCc1nc(C)cn1S(=O)(=O)c1cc([N+](=O)[O-])ccc1Cl here?
A: active: 4.11 µM

Q: With Cc1cc(C)n(CC(O)Cn2c3ccc(Cl)cc3c3cc(Cl)ccc32)c(=O)n1 (stereo unspecified) as the molecule, how does the “re-replication activation” value read?
A: inactive: 3.74%

Q: With COc1ccc(/C=N/NC(=O)c2ccncc2)cc1COc1ccc(NC(C)=O)cc1 as the molecule, how does the Potency read?
A: inconclusive: 1.46 µM [activator, partial curve, poor fit]

Q: With CCNC1CCC(Nc2ccnc3cc(Cl)ccc23)CC1 (stereo unspecified) as the molecule, how does the Potency read?
A: inconclusive: 20.6 µM [activator, single point]

Q: Which Potency does the source give for Cc1ccc(C(=O)c2c3ccc([N+](=O)[O-])cc3[n+]([O-])n2CCCN)cc1 here?
A: inconclusive: 20.6 µM [activator, single point]

Q: Which Potency does the source give for COc1ccc(C(=O)CCN2CCCCCC2)cc1 here?
A: inconclusive: 7.08 µM [activator, full curve, poor fit]

Q: For Cc1ccc(-c2cc(C(F)(F)F)nc(SCC(=O)c3cccc([N+](=O)[O-])c3)n2)cc1, which Potency is on record?
A: inconclusive: 29.1 µM [activator, single point]

Q: Which Potency does the source give for COc1ccc(/C=N/N(C)C2=NS(=O)(=O)c3ccccc32)cc1OC here?
A: inconclusive: 29.1 µM [activator, single point]

Q: For COc1cc(CNC2CCCC2)cc(Cl)c1OCc1ccccc1Cl, which Potency is on record?
A: inconclusive: 25.9 µM [activator, single point]

Q: Which Potency does the source give for CCN1c2ccccc2N(C)C1(C)c1ccccc1 (stereo unspecified) here?
A: active: 11.6 µM

Q: With CC(=O)NCCC(=O)Nc1ccc(C(N)=O)cc1 as the molecule, how does the “re-replication activation” value read?
A: inactive: -1.75%

Q: For CCC(OCC(O)CN1CCN(CCN2C(=O)c3cccc4cccc(c34)C2=O)CC1)c1ccccc1 (stereo unspecified), which “re-replication activation” value is on record?
A: inactive: -5.22%

Q: Which Potency does the source give for COc1ccc(CCN(C)Cc2ccc(OCc3ccccc3)c(OC)c2)cc1OC here?
A: inconclusive: 16.4 µM [activator, single point]

Q: For CCOc1ccc(NC(=O)CC2C(=O)N(c3ccc(OCC)cc3)C(=S)N2C2CC2)cc1 (stereo unspecified), which Potency is on record?
A: inconclusive: 29.1 µM [activator, single point]

Q: Which Potency does the source give for COc1ccc(C)cc1NC(=O)NNC(=O)C(C)Oc1ccc(F)cc1Cl (stereo unspecified) here?
A: inconclusive: 0.461 µM [activator, full curve, poor fit]

Q: With COc1cc(C2/C(=C(\O)c3ccc4c(c3)CC(C)O4)C(=O)C(=O)N2Cc2ccco2)ccc1O (stereo unspecified) as the molecule, how does the Potency read?
A: active: 0.517 µM

Q: For CCN(Cc1ccccc1)S(=O)(=O)c1ccc(S(=O)(=O)N(Cc2cccc(OC)c2)CC2CCCO2)cc1 (stereo unspecified), which “re-replication activation” value is on record?
A: inactive: -4.43%

Q: For Cc1ccc(Cc2c(C)nc3nc(SCC(=O)NCc4ccco4)nn3c2C)cc1, which Potency is on record?
A: inconclusive: 20.6 µM [activator, single point]

Q: For Cn1c(SCC(=O)N/N=C/c2ccc([N+](=O)[O-])s2)nnc1-c1ccccc1, which Potency is on record?
A: inconclusive: 29.1 µM [activator, single point]

Q: For COc1ccc(NC(=O)N2CCN(c3cccc(C(F)(F)F)c3)CC2)cc1, which Potency is on record?
A: inconclusive: 0.231 µM [activator, full curve, poor fit]

Q: With COC(=O)c1ccc(COc2ncnc3sccc23)cc1 as the molecule, how does the Potency read?
A: inconclusive: 11.6 µM [activator, single point]

Q: For COc1cc(C(C(=O)NC(C)(C)C)N(Cc2ccccc2)C(=O)c2cnccn2)cc(OC)c1OC (stereo unspecified), which Potency is on record?
A: inconclusive: 18.4 µM [activator, single point]

Q: For C#CCSC1=C(C#N)C(c2cccs2)C(C(=O)OCC)=C(C)N1 (stereo unspecified), which “re-replication activation” value is on record?
A: inactive: 3.55%
